Source: article doi:10.1101/2024.04.29.591624
These are yes or no findings as the source states them, for the method shown. In cells and extracts the contact can be indirect. Some entries that bind do so weakly or less than the wild type.

Amino acid sequences for entries named in this document (tags omitted). A change or cut given only in a name is not applied to a line headed by its entry. Residues count along the entry.
UniProt P46531, residues 1754-2555: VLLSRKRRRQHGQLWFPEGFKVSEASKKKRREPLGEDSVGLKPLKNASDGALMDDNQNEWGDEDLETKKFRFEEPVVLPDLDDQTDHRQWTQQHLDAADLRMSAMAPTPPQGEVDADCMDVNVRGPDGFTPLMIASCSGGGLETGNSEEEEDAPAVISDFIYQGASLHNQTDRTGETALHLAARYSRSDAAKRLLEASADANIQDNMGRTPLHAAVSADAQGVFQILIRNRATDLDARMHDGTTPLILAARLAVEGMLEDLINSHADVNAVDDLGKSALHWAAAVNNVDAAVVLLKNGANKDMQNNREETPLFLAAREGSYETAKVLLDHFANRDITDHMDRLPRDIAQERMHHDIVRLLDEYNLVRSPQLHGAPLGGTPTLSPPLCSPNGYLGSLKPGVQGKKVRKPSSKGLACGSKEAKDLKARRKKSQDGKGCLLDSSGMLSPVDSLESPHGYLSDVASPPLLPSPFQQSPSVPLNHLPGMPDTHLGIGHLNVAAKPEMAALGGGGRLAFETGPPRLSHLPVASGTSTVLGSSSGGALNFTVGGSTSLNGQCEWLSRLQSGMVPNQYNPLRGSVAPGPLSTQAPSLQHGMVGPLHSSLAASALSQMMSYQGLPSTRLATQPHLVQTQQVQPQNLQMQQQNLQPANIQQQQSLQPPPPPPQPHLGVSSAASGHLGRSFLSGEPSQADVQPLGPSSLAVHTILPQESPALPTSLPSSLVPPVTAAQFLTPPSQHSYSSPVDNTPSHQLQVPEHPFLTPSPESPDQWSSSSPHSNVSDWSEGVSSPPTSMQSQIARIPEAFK
UniProt Q00987: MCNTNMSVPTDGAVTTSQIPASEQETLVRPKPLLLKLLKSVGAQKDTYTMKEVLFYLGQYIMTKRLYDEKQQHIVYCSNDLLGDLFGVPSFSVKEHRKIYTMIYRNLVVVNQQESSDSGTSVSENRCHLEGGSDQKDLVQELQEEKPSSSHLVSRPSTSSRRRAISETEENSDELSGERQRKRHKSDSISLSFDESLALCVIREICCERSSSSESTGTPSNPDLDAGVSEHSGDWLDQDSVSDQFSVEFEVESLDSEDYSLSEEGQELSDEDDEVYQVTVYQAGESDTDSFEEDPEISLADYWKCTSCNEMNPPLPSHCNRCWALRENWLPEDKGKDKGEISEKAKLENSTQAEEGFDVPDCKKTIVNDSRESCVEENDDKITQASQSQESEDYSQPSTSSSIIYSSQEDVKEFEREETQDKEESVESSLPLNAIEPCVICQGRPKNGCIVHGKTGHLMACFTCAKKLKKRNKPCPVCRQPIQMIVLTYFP

Target: Notch Intracellular Domain (NICD), the active form of NOTCH1, produced from the NOTCH1-DeltaEx construct (UniProt P46531)
Experiment: co-IP

Substance: E3 ligase-dead MDM2 mutant (C464A point mutation in the RING domain) (from UniProt Q00987 1-491) (enzyme)
- binding: binds

Substance: wild type MDM2 (from UniProt Q00987 1-491) (enzyme)
- binding: binds
